From publication PMC12394070
These are yes or no findings as the source states them, for the method shown. In cells and extracts the contact can be indirect. Some entries that bind do so weakly or less than the wild type.

By UniProt entry, the sequences of proteins in these tests, tags left out.
UniProt Q13148: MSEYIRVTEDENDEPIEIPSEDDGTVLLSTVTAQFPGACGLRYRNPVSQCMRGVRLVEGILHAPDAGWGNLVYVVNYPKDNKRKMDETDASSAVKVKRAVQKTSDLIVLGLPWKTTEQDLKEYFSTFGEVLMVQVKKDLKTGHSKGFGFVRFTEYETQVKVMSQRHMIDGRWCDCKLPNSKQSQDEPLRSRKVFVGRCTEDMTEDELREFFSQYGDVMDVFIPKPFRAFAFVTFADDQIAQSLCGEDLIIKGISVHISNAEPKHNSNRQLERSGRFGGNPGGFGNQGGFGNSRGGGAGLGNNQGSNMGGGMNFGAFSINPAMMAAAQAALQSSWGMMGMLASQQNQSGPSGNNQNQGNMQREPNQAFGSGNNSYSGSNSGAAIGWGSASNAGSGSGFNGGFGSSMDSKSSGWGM
UniProt P29590: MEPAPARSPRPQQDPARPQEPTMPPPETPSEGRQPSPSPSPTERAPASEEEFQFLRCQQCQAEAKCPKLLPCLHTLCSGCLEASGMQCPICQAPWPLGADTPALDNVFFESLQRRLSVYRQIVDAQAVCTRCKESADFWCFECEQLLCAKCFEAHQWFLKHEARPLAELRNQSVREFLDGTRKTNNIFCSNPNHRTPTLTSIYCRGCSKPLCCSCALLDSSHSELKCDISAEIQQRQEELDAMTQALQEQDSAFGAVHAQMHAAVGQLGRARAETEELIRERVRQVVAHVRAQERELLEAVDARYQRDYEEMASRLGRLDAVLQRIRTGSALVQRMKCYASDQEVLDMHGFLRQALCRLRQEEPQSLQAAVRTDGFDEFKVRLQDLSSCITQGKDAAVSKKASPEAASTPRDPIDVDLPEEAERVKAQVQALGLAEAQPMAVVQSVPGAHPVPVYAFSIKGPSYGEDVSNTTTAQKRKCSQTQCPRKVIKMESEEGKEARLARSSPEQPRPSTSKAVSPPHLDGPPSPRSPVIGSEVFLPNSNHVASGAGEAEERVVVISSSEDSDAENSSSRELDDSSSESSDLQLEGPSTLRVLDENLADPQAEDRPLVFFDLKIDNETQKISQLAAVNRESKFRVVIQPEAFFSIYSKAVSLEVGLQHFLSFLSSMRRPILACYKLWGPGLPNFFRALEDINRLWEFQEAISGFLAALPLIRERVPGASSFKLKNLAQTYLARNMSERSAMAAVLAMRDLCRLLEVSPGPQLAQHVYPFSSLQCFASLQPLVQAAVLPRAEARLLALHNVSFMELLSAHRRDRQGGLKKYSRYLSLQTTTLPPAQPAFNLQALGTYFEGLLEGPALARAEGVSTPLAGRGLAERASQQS

Experiments:
[1] = molecular target: Flag-tagged wild-type (WT) TDP-43 (UniProt Q13148); assay: co-IP; Flag-IP under nondenaturing conditions (anti-Flag agarose, 2–3 h, 4 °C, elution with Flag peptide) from HEK293T cells transfected for 48 h; IP lysis buffer 50 mM HEPES, 150 mM NaCl, 1% Triton; coprecipitated proteins detected by immunoblot
[2] = molecular target: endogenous TDP-43 (human (endogenous in HEK293T)) (UniProt Q13148); assay: co-IP; IP of endogenous TDP-43 from HEK293T lysates with TDP-43-specific antibodies or rabbit IgG on protein A/G magnetic beads; coprecipitated PML detected by immunoblot

Substance: endogenous PML (promyelocytic leukemia protein) (from UniProt P29590 1-882)
- binding [1]: binds
- binding [2]: binds weakly
